Measured values taken from PubChem BioAssay AID1347423 (Functional Genomics Laboratory (NCATS/FGL), 2020).
Out of some 52,000 sequences screened, about 210 (0.4%) were called active.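 The calls were made as follows: active = gene whose silencing raises cell survival under the drug, median off-target-corrected z-score across its silencing RNAs 2 or more; inactive = the rest.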 The list shows a part of the results.

Assay: Resistance to Poly (ADP-Ribose) Polymerase inhibitor: Gene Identification via Genome-wide siRNA Screen
Conditions: mouse BRCA2 R2336H ES cells, olaparib, CellTiter-Glo viability; active compounds read high
In short: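 Genome-wide siRNA screen (3 siRNAs/gene, 20 nM) in mouse ES cells carrying hypomorphic BRCA2 R2336H; olaparib 500 nM added 48 h post-transfection, CellTiter-Glo viability 72 h later. Normalized to plate-median negative control; MAD z-scores, gene median, seed-adjusted.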
For GGAGGACAACAAGUACUGCTT against Smap1, the z-score was inactive: 2.56. For GGUACUGAUUGCUUUCUCUTT against Olfr1491, the z-score was inactive: -0.0899. For GGACAAACGGGAAAAGAAGTT against Sprr2d, the z-score was inactive: -1.23. For GGACAACAUCUUCAAAGGATT against Slc12a1, the z-score was inactive: 0.366. With GCUGGGUGAACUUACAGGATT against Wars2 the z-score was inactive: 0.356. In the case of CCAGUGUAAUCGAGUGUGATT against Atp10a, the z-score is reported as inactive: -1.48. In the case of GCCCAUGUUUUUUUUUCUGTT against Olfr648, the z-score is reported as inactive: 0.0866. With GGACUCAAAUGUGAUGCAUTT against Prkcq the z-score was inactive: -0.934. For GGAGAUUCUUCUCAUUGGCTT against Gmppa, the z-score was inactive: -1.07. In the case of GCCUCAGGAAGCAGAAUGATT against Kb40, the z-score is reported as inactive: 0.00438. With GGAAGAACACAAGUGUUUUTT against Trem3 the z-score was inactive: 0.216. With CCCAAGAAACUUCGCUUCCTT against Ehmt1 the z-score was inactive: -0.347. For CCAGAAUGAUUAAUAACGGTT against AU022521, the z-score was inactive: 1.08. In the case of GGCCUAAAGGCACAAUCUGTT against Nanos1, the z-score is reported as inactive: 0.678. For GGAAAAAAAUUCUGAGUUCTT against Rab6, the z-score was inactive: 0.677. For CGAUGGACUUUUCGUUAACTT against Jun, the z-score was inactive: -0.308. With GGAGCUCAAGAGCUGGGUUTT against Tor2a the z-score was inactive: -1.84. For GGACGUGAACAAAAGAAGGTT against Scel, the z-score was inactive: -0.354. In the case of GGUGGUGAUAAGCUUCCUCTT against Olfr1417, the z-score is reported as inactive: -0.365. For GGCCUUUGAACACACUCCATT against G6pc2, the z-score was inactive: 0.0119. In the case of CCUUCAUGCAACAGCUACUTT against LOC380969, the z-score is reported as inactive: -2.08. In the case of GCUCUAGGCAGAGCUAAGATT against Gsh1, the z-score is reported as inactive: 1.76. With “CCUGUGUUUCAGUUUGGUATT against C130052I12Rik” the z-score was inactive: 0.515. With “GGCCAUCAUUUUCACAACUTT against C330018K18Rik” the z-score was inactive: 0.952. In the case of GGUUUGAAUCAAAUUGUACTT against Hyou1, the z-score is reported as inactive: 0.498. In the case of GGAUGCUACAACACUCUACTT against Flrt3, the z-score is reported as inactive: 0.228. With GCAAAGGUCAGGACUAUUUTT against Gpr103 the z-score was inactive: -0.779. In the case of GCUUAUUUCAAAAAGGGAGTT against Mal2, the z-score is reported as inactive: 0.902. With GCAUAGUCCUGUGCUUACCTT against Sfmbt2 the z-score was inactive: -0.472. With GCAAUUCAGGUUUACUACATT against Fgg the z-score was inactive: -0.286. For “GGAGUAUGGUAUCAACCCGTT against 1700012G19Rik”, the z-score was inactive: 1.16. In the case of GCGGGACUGGAUAAUAAACTT against Orc2l, the z-score is reported as inactive: -0.795. In the case of GGAGUUUCACUACAGCCGGTT against Cdx1, the z-score is reported as inactive: -0.109. In the case of “CCUGUUAGGAAAGAAUCUUTT against 3110050K21Rik”, the z-score is reported as inactive: 1.67. For “GGCCUUCAAAGCAAUAGGATT against 2700075B01Rik”, the z-score was inactive: -0.359. In the case of GGUGAUCAACAGGAGUCUGTT against Rgs17, the z-score is reported as inactive: -0.519. With GGAAAAGGAGGUGGUACUGTT against Agc1 the z-score was inactive: 0.55. With CCCAGGGAGAAUUGACUUGTT against Sertad1 the z-score was inactive: -0.465. With GCCGUAGAUUUCCUUGAGUTT against Hbld2 the z-score was inactive: -0.505. For CGAUGAGACCAACAUCUUUTT against Grca, the z-score was inactive: 0.445. With GCGGGCUCACCAUAAUGCATT against Max the z-score was inactive: -1.03. With GGAAAAAUCCAGCACAUCCTT against Vps29 the z-score was inactive: -0.524. In the case of “GGCAACUAUGAAAAAUAGUTT against 1700065D16Rik”, the z-score is reported as inactive: 0.319. For GGGCUCUGGUGGAUGAAUUTT against Tmem4, the z-score was inactive: 0.117. For GGAGACUCCAACUACUUCATT against Sycp1, the z-score was inactive: 0.526. With “GGCUUUUCGUUGUAAAUCATT against 9930111J21Rik” the z-score was inactive: 1.39. In the case of GGAGAGCAAGGAAGUACUATT against Speer4b, the z-score is reported as inactive: 0.239. For “GGCAACUUUUAUCAAAAUGTT against 4930509O22”, the z-score was inactive: 0.0855. With GCCCUACCUUACCUGAUACTT against Rab17 the z-score was inactive: -0.955. With GCAAAGUCCAGUGAACAACTT against Gtse1 the z-score was inactive: -0.239. For “GGGACCUACUUUGUGGCUCTT against C230095G01Rik”, the z-score was inactive: 0.02. For “GCUGUUGCUGGCUAUUCUGTT against 5730409G15Rik”, the z-score was inactive: 0.298. With CCUGCUUUGUAUCUCCUCCTT against Csprs the z-score was inactive: -0.521. In the case of “GGUCAGACAGCAAUUCACATT against D830046C22Rik”, the z-score is reported as inactive: 0.445. With GGGUGAAUAAAACUUUGAATT against Haghl the z-score was inactive: -0.557. With CCAAUUGAGAAAAGUACAGTT against Lrp4 the z-score was inactive: 0.032. For “GGUGCAGCAUACCUGAAGATT against 9130213B05Rik”, the z-score was inactive: 0.871. In the case of GGUAUGAGAUACCGGACACTT against Accn2, the z-score is reported as inactive: 0.151. With “CCUACUUCUCAUCGCUGAGTT against 2310022B05Rik” the z-score was inactive: 0.963. With CUGUAUGAAGAACUGGAGCTT against BC026645 the z-score was inactive: 0.798. With GGUGGCCAUCAAAGUAAUCTT against Pim2 the z-score was inactive: -0.0904. With “GCAAAUGGAUGGUUCUUGGTT against 1200009O22Rik” the z-score was inactive: -0.0293. In the case of CCGAGCUGAGAUAUCCCAATT against Ube1y1, the z-score is reported as inactive: 1.17. In the case of GGGUUUGACUGUACAGUACTT against Adamts4, the z-score is reported as inactive: 0.0369. With GCUUCGUGGCUUUUUAUGATT against Dlgap3 the z-score was inactive: 0.631. With GGGUAAAGUACAAUAAACUTT against Atp1b2 the z-score was inactive: 1.14. For GCACAUUGCUCCCAAGAAUTT against AI317223, the z-score was inactive: -1.2. With GGUGUGCUGAGAAGUACUGTT against Acate2 the z-score was inactive: 0.734. In the case of GGAGUCUAAUAAAACAAGATT against Ankrd16, the z-score is reported as inactive: 0.744. With GCGAUUGAGAAAGAAUGCGTT against Mrpl45 the z-score was inactive: -0.245. With CGACAAUACUCUCUUCAAGTT against Fst the z-score was inactive: 1.2. In the case of CCACUGGUUCACCUAUAAUTT against Psma5, the z-score is reported as inactive: -3.11. For CAAAAAUAUCUACAGAGUCTT against Olfr494, the z-score was inactive: -0.183. With GGACCCUUAGGAAAUGUGCTT against S100a10 the z-score was inactive: -0.869. With GCCUUCGACAUAGAGUACCTT against Cri2 the z-score was inactive: 0.0276. With GGUUUAUUUAGCCUUGCUUTT against Dhx33 the z-score was inactive: -0.265. In the case of GCGAACUACACUUACUACATT against Aqp12, the z-score is reported as inactive: -0.513. With CGAUAAUUUGGCUAAGUAUTT against Pip5k3 the z-score was inactive: 0.0345. In the case of GGAAAUAAUUCACUCACCATT against Eya1, the z-score is reported as inactive: -2.13. With “GGUAUUUGAUUCCAAAUGCTT against 4930451A13Rik” the z-score was inactive: -0.442. With GGAGCCAUGACUUUUCACUTT against Sec22l1 the z-score was inactive: 0.164. In the case of GGCAGAGUCUCUUUCGAAGTT against Foxh1, the z-score is reported as inactive: 1.25. For GGCGACGAAGUCACCUAUATT against Carhsp1, the z-score was inactive: -1.18. In the case of CCACCCAUGAACUCACCAUTT against Pcbp1, the z-score is reported as inactive: -2.26. For GGCAACACACUGUCAUUUCTT against Il9, the z-score was inactive: 0.751. For GGUCACCAUCAUCAUCAAUTT against Lrrc16, the z-score was inactive: 1.15. For CCUGACAACUAACGAAGAUTT against Zdhhc18, the z-score was inactive: -0.316. In the case of “GCAAUUACAGAUUAAGUCUTT against 1200003I07Rik”, the z-score is reported as inactive: 0.318. With GGUAAGUAUACAAAGAUACTT against Cdc27 the z-score was inactive: 1.86. With “GGCAGAACACCUUCUUAGUTT against 5830468K18Rik” the z-score was inactive: 1.04. In the case of GGCCACAAUUAAUUUUUUGTT against Luzp2, the z-score is reported as inactive: 0.217. For GGCUGUUCCAGAGAUUGUGTT against Mela, the z-score was inactive: -2.87. In the case of GGAAGCACUAUAGCCUCAGTT against Olfr39, the z-score is reported as inactive: 1.36. For “GGAAAAGAAACCAGUUUCUTT against C230012O17Rik”, the z-score was inactive: 0.88. For CCUACGAGUAUUCAGAAAGTT against Snx13, the z-score was inactive: 0.352. With CCUCUUUUUACUUGCCUAATT against Rassf1 the z-score was inactive: -2.52. For GCAACAAUGUGGUUCCUAUTT against Rab11a, the z-score was inactive: -0.547. With GGUUGGACAACAUAAUAAGTT against Mina the z-score was inactive: 0.92. For “GGAUUUUGAAUUAUGGGAUTT against 2310035C23Rik”, the z-score was inactive: 0.0298. For CCGACACGUUCUCAAUGUCTT against Gss, the z-score was inactive: -0.275. For GGAAAUAGAAGACCAGUUUTT against Sfrs3, the z-score was inactive: 0.155. With “GCUGGUCUAAUCUGGAAACTT against 1200002G13Rik” the z-score was inactive: 0.0672. In the case of “GCAUUUCCGGGUUGUUACATT against 4930563C04Rik”, the z-score is reported as inactive: -0.961. With CGCAGGUGUAACACUCAUUTT against Ifitm3 the z-score was inactive: -0.382.
